Among the data in the supplement of paper PMC12819154, “High-throughput peptide-centric local stability assay extends protein–ligand identification to membrane proteins, tissues and bacteria” (Nature Structural & Molecular Biology, 2025) are log2 fold change values, retold here.

Chains of the proteins cited; added tags and fusions are not shown. Lines headed by an entry give the natural chain unless they say otherwise; changes in a name come on top.
UniProt O55229: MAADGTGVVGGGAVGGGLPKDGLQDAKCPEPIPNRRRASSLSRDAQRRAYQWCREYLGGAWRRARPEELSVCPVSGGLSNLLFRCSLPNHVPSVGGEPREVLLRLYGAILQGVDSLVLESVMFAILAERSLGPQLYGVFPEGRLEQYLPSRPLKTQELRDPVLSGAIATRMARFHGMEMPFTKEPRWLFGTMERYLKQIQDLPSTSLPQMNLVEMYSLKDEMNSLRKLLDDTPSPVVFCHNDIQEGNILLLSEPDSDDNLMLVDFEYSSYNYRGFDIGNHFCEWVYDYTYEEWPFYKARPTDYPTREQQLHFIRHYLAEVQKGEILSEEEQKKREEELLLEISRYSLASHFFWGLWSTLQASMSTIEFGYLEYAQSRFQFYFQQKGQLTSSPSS
UniProt O70209: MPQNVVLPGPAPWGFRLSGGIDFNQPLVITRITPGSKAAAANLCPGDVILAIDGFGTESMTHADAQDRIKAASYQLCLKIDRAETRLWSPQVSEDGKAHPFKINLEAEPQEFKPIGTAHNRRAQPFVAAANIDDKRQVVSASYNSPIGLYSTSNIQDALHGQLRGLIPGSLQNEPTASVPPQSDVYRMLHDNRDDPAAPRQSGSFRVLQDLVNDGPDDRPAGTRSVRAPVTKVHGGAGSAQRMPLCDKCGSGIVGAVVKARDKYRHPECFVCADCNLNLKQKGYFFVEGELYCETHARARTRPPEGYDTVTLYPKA
UniProt O35728: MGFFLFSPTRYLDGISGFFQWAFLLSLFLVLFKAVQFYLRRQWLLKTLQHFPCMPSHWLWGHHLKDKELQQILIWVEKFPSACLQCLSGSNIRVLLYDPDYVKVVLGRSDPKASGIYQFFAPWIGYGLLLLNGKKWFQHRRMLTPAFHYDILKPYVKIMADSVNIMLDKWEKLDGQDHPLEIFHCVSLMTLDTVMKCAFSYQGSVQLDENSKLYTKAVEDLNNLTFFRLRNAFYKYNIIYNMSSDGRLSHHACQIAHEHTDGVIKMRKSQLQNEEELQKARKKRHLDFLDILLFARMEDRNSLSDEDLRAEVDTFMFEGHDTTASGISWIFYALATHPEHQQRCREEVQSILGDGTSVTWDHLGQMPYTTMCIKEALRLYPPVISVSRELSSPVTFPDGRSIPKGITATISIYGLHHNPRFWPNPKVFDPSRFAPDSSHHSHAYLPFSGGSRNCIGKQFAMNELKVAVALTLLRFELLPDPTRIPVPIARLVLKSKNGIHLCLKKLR
UniProt O55060: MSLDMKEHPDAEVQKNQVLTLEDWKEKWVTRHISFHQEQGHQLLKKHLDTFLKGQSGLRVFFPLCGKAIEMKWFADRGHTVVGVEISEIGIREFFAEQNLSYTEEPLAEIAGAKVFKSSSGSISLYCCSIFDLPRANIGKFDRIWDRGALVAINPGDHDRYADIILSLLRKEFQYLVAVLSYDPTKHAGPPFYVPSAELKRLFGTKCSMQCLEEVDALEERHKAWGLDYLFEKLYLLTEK
UniProt O55023: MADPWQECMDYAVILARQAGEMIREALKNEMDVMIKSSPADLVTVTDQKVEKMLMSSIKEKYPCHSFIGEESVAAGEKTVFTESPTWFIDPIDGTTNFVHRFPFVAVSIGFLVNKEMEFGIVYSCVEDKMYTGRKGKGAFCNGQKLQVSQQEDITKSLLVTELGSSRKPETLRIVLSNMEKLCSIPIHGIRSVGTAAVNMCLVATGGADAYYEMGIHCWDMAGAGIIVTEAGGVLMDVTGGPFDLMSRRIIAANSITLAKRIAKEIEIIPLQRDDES
UniProt O88783: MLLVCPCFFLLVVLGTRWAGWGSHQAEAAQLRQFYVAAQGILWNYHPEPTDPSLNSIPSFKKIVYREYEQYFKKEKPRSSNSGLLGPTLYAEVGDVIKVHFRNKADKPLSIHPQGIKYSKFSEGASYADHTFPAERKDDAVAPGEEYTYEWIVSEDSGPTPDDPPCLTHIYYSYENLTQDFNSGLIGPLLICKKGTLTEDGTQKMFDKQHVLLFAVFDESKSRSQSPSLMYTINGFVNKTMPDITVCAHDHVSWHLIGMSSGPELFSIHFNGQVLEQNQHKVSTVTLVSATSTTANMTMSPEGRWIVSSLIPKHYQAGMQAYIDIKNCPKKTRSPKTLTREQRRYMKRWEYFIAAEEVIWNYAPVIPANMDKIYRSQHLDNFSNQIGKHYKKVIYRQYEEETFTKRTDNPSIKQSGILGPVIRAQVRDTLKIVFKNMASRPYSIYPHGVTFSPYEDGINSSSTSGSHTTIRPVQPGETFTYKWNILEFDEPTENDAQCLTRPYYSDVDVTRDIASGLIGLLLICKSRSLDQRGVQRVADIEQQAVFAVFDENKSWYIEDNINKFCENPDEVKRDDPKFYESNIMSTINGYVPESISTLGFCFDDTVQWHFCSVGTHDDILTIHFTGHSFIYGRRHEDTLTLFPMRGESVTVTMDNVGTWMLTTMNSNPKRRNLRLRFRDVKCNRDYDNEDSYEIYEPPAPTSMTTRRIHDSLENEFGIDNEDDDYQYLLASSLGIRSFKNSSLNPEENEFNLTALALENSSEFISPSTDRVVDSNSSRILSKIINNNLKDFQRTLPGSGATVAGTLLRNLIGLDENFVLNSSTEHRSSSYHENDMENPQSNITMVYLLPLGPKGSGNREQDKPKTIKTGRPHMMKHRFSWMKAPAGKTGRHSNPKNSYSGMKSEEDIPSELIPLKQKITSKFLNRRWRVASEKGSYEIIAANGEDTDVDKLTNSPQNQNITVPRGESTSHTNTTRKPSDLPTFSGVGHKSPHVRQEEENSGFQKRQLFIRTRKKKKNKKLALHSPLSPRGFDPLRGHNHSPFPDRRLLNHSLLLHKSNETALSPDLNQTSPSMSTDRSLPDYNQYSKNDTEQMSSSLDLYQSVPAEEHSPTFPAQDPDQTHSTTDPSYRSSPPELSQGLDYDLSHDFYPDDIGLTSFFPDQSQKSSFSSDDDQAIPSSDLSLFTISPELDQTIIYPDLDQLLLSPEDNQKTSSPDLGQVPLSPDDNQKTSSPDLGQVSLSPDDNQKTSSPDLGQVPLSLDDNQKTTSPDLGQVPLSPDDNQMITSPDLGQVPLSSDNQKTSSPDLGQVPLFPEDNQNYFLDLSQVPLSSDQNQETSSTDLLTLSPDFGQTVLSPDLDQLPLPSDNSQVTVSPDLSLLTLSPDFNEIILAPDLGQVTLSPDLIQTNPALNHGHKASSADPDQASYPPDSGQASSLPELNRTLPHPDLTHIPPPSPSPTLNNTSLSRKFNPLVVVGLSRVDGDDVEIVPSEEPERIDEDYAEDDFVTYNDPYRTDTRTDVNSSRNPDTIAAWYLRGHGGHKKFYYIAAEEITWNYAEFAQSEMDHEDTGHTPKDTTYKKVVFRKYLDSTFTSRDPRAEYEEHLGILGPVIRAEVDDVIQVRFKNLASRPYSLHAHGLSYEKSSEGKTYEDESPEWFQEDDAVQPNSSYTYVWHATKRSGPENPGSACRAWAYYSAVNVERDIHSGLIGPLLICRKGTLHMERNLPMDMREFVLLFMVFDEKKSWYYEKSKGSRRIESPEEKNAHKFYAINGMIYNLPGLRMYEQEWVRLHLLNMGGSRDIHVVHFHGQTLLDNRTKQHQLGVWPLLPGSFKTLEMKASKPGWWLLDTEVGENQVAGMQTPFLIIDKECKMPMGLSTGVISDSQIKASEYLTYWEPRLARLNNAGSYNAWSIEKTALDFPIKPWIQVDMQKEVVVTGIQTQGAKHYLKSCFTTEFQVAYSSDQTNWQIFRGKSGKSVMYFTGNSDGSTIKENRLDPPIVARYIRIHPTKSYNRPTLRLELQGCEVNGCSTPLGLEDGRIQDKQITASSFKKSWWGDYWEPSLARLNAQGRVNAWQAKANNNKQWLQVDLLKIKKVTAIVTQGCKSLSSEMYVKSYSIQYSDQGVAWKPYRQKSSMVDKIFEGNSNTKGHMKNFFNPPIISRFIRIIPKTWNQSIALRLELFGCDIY
UniProt O88792: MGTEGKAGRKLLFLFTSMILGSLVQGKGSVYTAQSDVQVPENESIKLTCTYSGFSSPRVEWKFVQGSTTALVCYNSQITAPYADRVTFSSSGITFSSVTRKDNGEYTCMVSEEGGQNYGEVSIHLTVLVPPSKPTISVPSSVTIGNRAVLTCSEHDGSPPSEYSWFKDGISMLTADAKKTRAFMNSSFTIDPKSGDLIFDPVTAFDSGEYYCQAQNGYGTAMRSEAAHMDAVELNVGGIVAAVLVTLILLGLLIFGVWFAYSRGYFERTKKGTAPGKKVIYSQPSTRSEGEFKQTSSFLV
UniProt O55127: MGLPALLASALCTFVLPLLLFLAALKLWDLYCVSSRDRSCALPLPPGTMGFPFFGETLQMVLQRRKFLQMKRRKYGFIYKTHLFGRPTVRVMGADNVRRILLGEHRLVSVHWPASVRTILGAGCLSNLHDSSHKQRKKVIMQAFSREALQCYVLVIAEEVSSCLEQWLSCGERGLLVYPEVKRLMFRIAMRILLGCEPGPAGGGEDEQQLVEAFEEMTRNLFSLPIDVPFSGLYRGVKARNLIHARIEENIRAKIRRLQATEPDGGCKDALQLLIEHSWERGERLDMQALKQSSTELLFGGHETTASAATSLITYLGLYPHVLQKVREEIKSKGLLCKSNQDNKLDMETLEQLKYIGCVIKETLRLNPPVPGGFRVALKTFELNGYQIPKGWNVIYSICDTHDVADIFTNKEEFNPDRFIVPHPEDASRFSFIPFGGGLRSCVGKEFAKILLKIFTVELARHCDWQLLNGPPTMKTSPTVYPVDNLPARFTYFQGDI
UniProt O70404: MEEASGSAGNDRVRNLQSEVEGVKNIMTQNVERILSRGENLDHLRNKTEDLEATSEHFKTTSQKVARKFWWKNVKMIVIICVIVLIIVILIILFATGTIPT
UniProt O35984: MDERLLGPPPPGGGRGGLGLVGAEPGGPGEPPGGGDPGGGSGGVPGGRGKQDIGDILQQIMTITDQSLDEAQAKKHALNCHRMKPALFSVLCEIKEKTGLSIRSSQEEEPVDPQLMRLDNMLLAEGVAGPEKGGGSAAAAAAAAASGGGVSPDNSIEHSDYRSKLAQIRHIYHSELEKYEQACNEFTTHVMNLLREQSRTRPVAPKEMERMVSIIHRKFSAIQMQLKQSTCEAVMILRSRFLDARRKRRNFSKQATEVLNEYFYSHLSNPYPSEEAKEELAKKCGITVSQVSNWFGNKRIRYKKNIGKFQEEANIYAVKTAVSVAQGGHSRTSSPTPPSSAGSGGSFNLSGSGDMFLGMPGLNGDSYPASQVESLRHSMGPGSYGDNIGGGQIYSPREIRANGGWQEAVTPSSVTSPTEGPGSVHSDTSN
UniProt O70145: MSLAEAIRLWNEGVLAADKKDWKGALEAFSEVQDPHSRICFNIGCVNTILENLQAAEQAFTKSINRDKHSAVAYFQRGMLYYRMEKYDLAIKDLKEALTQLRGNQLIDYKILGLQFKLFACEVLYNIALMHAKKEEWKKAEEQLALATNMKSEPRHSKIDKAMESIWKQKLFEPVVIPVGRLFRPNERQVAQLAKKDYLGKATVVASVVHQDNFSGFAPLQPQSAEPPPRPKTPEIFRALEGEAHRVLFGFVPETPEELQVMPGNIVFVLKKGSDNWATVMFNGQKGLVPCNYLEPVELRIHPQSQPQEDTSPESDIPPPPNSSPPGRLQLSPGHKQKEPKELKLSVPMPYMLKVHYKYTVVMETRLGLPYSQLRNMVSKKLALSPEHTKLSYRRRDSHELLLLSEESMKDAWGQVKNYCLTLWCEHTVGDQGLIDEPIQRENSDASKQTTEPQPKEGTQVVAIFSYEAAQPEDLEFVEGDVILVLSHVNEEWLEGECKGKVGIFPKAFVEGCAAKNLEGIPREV
UniProt O70309: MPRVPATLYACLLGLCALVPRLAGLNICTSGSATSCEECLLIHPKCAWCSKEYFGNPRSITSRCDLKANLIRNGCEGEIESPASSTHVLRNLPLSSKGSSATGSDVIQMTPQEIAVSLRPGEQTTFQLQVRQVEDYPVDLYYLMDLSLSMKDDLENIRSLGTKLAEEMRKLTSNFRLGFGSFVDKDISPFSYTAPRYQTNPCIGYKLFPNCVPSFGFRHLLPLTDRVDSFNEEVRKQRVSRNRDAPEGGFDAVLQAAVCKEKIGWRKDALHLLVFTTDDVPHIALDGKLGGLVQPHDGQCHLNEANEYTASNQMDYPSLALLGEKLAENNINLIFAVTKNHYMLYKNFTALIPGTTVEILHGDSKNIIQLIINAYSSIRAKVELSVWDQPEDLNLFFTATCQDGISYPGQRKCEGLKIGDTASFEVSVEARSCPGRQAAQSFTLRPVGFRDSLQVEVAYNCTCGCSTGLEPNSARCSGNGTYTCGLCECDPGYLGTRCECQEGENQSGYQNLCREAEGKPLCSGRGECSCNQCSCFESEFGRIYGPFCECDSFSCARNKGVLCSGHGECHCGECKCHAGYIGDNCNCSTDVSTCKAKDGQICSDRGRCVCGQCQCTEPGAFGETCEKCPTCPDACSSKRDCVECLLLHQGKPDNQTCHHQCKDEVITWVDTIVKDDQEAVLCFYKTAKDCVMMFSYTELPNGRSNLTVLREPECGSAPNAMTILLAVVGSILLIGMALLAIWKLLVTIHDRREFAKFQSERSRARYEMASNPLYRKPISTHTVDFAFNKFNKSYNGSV

This is one part of the list. Small differences around the control level are noise.

Compound in this test: CN[C@@H]1C[C@H]2O[C@@](C)([C@@H]1OC)n1c3ccccc3c3c4c(c5c6ccccc6n2c5c31)C(=O)NC4 [staurosporine]
The experiment in a line: log2 fold change of tryptic peptide abundance, ligand vs vehicle (limited proteolysis) (log2 ratio); higher = more trypsin-susceptible (destabilized). The settings on record: ligand concentration: 20 uM; sample: mouse liver crude lysate; replicate design: treated separately.
For “UniProt O55239 (peptide sequence: DTYLSHFNPR, peptide start residue: 9)”, the log2 fold change was found to be 0.18. Regarding “UniProt O88736 (peptide sequence: LLAEDDDLHLCLACR, peptide start residue: 22)”, the log2 fold change was -0.446. Then “UniProt O55028 (peptide sequence: QLLDDHK, peptide start residue: 157)”, with -0.581; and “UniProt O35613 (peptide sequence: DCSSLTGR, peptide start residue: 250)”, with 0.475. Then “UniProt O70157 (peptide sequence: KLDEALSQYLGER, peptide start residue: 626)”, with -0.0719; and “UniProt O55229 (peptide sequence: LEQYLPSRPLK, peptide start residue: 144)”, with -0.701; and “UniProt O55003 (peptide sequence: NSTLSEEDYIERR, peptide start residue: 84)”, with -0.219.

On to “UniProt O88573 (peptide sequence: VAQAPSPCTAR, peptide start residue: 1091)”, for which the log2 fold change worked out at 0.237. The value for “UniProt O88737 (peptide sequence: QAQFALQR, peptide start residue: 2443)” was -0.0782; that for “UniProt O70209 (peptide sequence: MLHDNRDDPAAPR, peptide start residue: 188)” was 0.264. With “UniProt O70172 (peptide sequence: CHENAPR, peptide start residue: 343)”, the log2 fold change is 0.408. Then “UniProt O35728 (peptide sequence: FAPDSSHHSHAYLPFSGGSR, peptide start residue: 433)”, with 0.418. The value for “UniProt O35660 (peptide sequence: FKLDLDFPNLPYLIDGSHK, peptide start residue: 51)” was -0.676; that for “UniProt O70422 (peptide sequence: AWSDDTSQLGPDKHAR, peptide start residue: 129)” was 0.131; that for “UniProt O55060 (peptide sequence: NQVLTLEDWKEK, peptide start residue: 16)” was -0.22. In the case of “UniProt O88696 (peptide sequence: KQLYNIYAK, peptide start residue: 199)”, the log2 fold change was -0.298. The value for “UniProt O55023 (peptide sequence: EALKNEMDVMIK, peptide start residue: 25)” was -0.608; that for “UniProt O55029 (peptide sequence: LPEAAFLAR, peptide start residue: 751)” was 0.128. Consider “UniProt O88520 (peptide sequence: LNSLTLAR, peptide start residue: 333)”, for which the log2 fold change was -0.462. Then “UniProt O54749 (peptide sequence: LFVSHIVK, peptide start residue: 256)”, with 0.268; and “UniProt O35490 (peptide sequence: GNYVAEKISGQK, peptide start residue: 87)”, with 0.422; and “UniProt O88428 (peptide sequence: VALLQDPEFYEHR, peptide start residue: 331)”, with -0.218.

For “UniProt O88879 (peptide sequence: LPLNIEEAKDR, peptide start residue: 216)”, the log2 fold change worked out at 0.48. The value for “UniProt O35737 (peptide sequence: DLNYCFSGMSDHR, peptide start residue: 263)” was -0.143.

“UniProt O55071 (peptide sequence: EIDQVIGSHRLPTLDDR, peptide start residue: 327)”: the log2 fold change is -0.127. Take “UniProt O88796 (peptide sequence: KPRPSEADDESLPVCK, peptide start residue: 247)”: the log2 fold change was -0.0465. The value for “UniProt O35855 (peptide sequence: LGGNYGPTVAVQR, peptide start residue: 231)” was 0.544; that for “UniProt O70585 (peptide sequence: LRLEHEQASQPTPEK, peptide start residue: 457)” was -0.246; that for “UniProt O88783 (peptide sequence: QEEENSGFQKR, peptide start residue: 995)” was -0.592. Regarding “UniProt O88396 (peptide sequence: EVQDLTLR, peptide start residue: 71)”, the log2 fold change was determined as 0.127. Then “UniProt O88792 (peptide sequence: VIYSQPSTR, peptide start residue: 279)”, with -0.0993; and “UniProt O88456 (peptide sequence: TDGFGIDTCR, peptide start residue: 136)”, with -0.173; and “UniProt O55127 (peptide sequence: LNPPVPGGFR, peptide start residue: 366)”, with 0.309. In the case of “UniProt O70404 (peptide sequence: NIMTQNVER, peptide start residue: 25)”, the log2 fold change is -0.0613. “UniProt O35984 (peptide sequence: TAVSVAQGGHSR, peptide start residue: 320)”: the log2 fold change was -0.276.

In the case of “UniProt O70145 (peptide sequence: AFVEGCAAK, peptide start residue: 508)”, the log2 fold change is -0.414. The value for “UniProt O54890 (peptide sequence: AKWDTANNPLYK, peptide start residue: 762)” was 0.394; that for “UniProt O55042 (peptide sequence: EGVVHGVTTVAEK, peptide start residue: 46)” was 0.144; that for “UniProt O70309 (peptide sequence: ARYEMASNPLYR, peptide start residue: 764)” was -0.221.
